# From publication PMC11217295, “The immune response to RNA suppresses nucleic acid synthesis by limiting ribose 5-phosphate” (The EMBO Journal, 2024)
# Amino acid sequences for entries named in this document (tags omitted). A change or cut given only in a name is not applied to a line headed by its entry.
# UniProt P49247: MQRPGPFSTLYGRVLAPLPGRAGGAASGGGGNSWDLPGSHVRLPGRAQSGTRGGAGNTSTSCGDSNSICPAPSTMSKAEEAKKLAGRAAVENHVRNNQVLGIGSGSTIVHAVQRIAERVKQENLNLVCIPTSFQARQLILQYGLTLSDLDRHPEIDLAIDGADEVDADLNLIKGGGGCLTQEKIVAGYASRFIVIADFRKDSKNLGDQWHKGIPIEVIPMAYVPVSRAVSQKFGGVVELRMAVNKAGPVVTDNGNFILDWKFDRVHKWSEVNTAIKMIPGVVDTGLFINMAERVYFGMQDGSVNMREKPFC
# UniProt P19525: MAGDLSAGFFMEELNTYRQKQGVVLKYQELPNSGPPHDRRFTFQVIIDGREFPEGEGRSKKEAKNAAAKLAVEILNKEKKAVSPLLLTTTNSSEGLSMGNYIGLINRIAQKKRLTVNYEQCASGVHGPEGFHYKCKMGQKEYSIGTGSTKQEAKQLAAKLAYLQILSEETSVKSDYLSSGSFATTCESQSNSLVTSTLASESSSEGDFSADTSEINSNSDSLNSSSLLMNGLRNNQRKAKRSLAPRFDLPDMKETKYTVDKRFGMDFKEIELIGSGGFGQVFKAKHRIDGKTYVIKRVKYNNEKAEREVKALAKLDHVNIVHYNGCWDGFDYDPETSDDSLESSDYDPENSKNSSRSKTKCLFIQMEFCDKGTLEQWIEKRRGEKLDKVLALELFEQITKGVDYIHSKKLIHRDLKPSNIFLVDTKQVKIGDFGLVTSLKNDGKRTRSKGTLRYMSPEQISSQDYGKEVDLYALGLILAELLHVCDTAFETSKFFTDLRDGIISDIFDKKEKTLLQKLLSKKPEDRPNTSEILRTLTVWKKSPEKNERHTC
# Read-outs that look alike come from different tables or passages of the source. Results are given in words; binding and its absence hold for the method and conditions named. Binding seen in cells or lysates may run through a third protein. Some entries that bind do so weakly or less than the wild type. For some of these results: Where a sequence is shown, tags or fusion partners need not be part of it.
# Key:
# Assay in all cases: split reporter; split Venus: V1 (Venus residues 1-210) and V2 (residues 210-238) fusions in pcDNA3 co-transfected into HEK293 (20 ng PKR construct, 50 ng RPIA construct per well), fixed after 48 h, fluorescence microscopy
# [1] = molecular target: split Venus-tagged human Ribose 5-Phosphate Isomerase A (RPIA) (human) (UniProt P49247)
# [2] = molecular target: split Venus-tagged human Protein Kinase RNA-activated (PKR), kinase-dead point mutant K296R (human) (UniProt P19525)
# [3] = molecular target: split Venus-tagged human Protein Kinase RNA-activated (PKR), wild type (human) (UniProt P19525)
# [4] = molecular target: split Venus-tagged human Ribose 5-Phosphate Isomerase A (RPIA) (human) (UniProt P49247); remark: listed apart in the source
binding [1],binding [2],binding [3],binding [4],Molecule
binds,binds,binds,,split Venus-tagged human Ribose 5-Phosphate Isomerase A (RPIA) (from UniProt P49247 1-311) (enzyme)
,,,binds,"split Venus-tagged E. coli Ribose 5-phosphate isomerase (RpiA) (enzyme, UniProt P0A7Z0 1-219) MTQDELKKAVGWAALQYVQPGTIVGVGTGSTAAHFIDALGTMKGQIEGAVSSSDASTEKLKSLGIHVFDLNEVDSLGIYVDGADEINGHMQMIKGGGAALTREKIIASVAEKFICIADASKQVDILGKFPLPVEVIPMARSAVARQLVKLGGRPEYRQGVVTDNGNVILDVHGMEILDPIAMENAINAIPGVVTVGLFANRGADVALIGTPDGVKTIVK"
